Data from the supplement of paper PMC11006884.
Only a part is listed here, and it is no random draw.

Protein sequences, listed by entry. Tags and fused reporters are not part of them. Lines headed by an entry give the natural chain unless they say otherwise; changes in a name come on top.
UniProt P15924: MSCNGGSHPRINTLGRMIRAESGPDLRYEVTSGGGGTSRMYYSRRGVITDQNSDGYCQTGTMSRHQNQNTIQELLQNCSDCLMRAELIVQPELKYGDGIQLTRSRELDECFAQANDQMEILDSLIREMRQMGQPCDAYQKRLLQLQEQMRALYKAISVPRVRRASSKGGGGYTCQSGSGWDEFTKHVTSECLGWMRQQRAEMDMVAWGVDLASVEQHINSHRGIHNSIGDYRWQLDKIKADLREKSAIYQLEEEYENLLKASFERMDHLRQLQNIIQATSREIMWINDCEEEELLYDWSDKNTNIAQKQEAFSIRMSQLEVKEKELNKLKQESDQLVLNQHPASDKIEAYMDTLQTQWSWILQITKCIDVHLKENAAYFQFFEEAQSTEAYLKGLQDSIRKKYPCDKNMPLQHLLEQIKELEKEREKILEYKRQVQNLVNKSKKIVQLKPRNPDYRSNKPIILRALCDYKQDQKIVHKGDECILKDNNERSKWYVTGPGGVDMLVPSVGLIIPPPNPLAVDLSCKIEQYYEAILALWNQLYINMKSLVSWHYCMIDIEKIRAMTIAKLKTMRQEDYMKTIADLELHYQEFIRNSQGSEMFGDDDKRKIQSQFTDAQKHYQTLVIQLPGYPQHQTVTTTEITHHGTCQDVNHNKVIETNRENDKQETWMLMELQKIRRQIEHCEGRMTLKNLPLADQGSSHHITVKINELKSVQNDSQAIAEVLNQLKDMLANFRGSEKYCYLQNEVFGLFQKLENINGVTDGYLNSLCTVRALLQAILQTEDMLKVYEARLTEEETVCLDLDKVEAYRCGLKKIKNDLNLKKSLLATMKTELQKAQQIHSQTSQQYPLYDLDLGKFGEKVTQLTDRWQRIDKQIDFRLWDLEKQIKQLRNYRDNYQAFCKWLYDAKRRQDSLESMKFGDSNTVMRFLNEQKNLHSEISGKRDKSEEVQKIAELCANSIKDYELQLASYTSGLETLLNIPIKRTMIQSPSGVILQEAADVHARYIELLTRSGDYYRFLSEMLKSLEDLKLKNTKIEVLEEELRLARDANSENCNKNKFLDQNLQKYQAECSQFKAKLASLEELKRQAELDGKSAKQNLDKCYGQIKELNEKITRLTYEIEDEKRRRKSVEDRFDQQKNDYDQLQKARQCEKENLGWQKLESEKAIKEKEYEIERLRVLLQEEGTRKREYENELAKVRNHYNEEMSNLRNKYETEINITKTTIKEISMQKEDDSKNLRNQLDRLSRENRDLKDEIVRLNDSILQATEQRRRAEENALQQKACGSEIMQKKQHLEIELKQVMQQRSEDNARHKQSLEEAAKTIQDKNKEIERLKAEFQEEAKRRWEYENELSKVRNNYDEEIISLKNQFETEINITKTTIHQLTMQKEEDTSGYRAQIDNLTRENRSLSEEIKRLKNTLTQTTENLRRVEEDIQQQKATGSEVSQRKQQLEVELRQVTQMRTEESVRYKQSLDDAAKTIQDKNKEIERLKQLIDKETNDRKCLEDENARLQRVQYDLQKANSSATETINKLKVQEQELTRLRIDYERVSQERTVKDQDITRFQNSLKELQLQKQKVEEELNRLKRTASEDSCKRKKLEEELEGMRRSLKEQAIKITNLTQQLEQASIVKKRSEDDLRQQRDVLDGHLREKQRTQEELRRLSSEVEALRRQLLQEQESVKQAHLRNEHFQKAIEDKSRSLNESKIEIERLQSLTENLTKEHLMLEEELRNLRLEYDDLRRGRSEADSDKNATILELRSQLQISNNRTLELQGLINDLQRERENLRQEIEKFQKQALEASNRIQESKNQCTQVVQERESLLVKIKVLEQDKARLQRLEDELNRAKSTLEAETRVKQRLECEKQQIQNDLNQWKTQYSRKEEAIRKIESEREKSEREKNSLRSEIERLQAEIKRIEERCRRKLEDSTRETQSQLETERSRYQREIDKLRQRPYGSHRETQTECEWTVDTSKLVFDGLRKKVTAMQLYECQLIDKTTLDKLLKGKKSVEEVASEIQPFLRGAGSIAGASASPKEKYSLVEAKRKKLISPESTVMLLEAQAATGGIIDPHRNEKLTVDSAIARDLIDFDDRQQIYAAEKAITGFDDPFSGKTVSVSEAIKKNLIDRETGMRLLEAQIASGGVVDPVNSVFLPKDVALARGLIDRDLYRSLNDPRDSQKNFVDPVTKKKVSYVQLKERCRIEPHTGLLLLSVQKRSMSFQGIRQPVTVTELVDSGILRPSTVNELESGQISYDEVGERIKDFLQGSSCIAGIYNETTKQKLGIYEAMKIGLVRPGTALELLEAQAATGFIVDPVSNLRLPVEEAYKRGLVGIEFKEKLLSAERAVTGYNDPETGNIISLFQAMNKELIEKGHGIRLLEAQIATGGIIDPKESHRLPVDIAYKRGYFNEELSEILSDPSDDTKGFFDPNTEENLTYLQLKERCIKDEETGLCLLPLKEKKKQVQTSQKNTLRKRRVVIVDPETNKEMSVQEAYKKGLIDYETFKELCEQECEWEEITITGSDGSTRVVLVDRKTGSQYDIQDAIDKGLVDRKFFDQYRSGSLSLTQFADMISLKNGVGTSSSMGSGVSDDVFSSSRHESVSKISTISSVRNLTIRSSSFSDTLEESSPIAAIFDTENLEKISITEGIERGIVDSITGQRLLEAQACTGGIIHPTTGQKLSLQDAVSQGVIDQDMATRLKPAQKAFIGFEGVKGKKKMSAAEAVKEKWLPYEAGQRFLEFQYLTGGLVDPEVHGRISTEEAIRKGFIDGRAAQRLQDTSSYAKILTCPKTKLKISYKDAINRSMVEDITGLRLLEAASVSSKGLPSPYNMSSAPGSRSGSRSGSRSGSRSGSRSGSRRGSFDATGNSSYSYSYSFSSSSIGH
UniProt P14923: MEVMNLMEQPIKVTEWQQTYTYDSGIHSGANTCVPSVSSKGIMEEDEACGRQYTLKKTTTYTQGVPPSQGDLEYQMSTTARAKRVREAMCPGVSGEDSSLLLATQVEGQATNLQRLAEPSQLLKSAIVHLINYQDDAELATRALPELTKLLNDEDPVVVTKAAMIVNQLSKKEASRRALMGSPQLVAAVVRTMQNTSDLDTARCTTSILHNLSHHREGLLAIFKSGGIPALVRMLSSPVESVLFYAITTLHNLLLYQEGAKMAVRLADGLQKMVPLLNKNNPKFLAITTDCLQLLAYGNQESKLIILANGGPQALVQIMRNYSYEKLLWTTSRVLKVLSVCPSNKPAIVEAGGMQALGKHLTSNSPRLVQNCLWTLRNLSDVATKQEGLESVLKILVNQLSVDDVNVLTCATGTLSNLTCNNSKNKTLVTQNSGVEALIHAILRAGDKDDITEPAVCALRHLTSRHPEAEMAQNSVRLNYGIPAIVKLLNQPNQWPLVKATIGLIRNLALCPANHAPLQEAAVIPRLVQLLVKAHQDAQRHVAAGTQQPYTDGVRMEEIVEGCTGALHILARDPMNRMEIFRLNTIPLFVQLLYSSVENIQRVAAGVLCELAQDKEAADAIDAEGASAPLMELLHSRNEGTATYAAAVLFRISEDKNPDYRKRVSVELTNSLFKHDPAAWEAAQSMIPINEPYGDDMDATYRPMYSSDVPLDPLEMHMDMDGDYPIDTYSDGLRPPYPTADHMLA
UniProt P08047, whole entry, looked up: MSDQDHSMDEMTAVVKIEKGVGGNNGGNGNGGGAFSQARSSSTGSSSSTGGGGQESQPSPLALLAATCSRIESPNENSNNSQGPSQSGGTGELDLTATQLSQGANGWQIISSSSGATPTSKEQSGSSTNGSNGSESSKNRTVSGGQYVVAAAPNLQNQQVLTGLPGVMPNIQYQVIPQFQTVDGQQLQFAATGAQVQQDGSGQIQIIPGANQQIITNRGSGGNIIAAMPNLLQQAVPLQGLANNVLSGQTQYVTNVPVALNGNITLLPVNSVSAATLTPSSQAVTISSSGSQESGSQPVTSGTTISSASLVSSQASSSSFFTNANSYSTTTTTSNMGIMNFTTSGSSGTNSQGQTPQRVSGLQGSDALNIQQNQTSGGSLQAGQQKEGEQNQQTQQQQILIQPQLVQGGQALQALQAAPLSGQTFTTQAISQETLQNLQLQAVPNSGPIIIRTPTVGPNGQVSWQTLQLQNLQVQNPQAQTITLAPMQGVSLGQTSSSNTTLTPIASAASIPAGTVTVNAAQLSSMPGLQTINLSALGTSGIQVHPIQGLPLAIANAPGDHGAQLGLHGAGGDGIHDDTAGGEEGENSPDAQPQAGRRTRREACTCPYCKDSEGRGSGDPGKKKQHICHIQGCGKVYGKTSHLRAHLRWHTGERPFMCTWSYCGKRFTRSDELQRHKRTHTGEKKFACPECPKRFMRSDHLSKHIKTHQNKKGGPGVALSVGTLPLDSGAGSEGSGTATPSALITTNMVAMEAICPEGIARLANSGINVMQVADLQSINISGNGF
UniProt P14618, whole entry, looked up: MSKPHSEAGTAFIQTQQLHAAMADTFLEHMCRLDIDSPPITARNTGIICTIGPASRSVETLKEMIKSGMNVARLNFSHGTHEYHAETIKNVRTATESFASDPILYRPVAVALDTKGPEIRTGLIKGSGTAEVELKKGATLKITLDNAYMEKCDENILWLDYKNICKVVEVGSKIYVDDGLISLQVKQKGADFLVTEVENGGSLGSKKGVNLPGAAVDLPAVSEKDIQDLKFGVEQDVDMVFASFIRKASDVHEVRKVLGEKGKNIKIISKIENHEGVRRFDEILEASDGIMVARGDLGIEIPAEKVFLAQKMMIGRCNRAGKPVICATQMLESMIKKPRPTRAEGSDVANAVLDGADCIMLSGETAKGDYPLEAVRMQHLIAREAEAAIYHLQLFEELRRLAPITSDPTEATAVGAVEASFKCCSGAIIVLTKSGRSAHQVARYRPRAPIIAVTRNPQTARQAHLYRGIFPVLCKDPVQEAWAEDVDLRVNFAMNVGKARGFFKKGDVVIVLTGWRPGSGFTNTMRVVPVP
UniProt P09622, whole entry, looked up: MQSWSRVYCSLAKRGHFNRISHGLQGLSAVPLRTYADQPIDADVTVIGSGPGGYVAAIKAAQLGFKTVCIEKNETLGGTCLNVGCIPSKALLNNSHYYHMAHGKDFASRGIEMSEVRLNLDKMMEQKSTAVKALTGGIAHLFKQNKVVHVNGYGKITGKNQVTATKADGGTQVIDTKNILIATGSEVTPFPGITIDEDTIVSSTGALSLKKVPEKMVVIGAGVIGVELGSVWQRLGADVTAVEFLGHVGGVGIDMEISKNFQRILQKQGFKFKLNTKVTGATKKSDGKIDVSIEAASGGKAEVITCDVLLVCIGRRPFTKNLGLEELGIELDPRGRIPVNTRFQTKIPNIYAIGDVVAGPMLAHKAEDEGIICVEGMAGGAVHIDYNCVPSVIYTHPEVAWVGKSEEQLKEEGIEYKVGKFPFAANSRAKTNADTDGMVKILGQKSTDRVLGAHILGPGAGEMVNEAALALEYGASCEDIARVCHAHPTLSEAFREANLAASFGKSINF
UniProt P15531, whole entry, looked up: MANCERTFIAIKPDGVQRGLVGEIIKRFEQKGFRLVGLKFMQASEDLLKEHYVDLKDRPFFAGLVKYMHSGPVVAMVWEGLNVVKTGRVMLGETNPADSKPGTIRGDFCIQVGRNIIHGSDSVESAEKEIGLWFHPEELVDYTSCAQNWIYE
UniProt P08238, whole entry, looked up: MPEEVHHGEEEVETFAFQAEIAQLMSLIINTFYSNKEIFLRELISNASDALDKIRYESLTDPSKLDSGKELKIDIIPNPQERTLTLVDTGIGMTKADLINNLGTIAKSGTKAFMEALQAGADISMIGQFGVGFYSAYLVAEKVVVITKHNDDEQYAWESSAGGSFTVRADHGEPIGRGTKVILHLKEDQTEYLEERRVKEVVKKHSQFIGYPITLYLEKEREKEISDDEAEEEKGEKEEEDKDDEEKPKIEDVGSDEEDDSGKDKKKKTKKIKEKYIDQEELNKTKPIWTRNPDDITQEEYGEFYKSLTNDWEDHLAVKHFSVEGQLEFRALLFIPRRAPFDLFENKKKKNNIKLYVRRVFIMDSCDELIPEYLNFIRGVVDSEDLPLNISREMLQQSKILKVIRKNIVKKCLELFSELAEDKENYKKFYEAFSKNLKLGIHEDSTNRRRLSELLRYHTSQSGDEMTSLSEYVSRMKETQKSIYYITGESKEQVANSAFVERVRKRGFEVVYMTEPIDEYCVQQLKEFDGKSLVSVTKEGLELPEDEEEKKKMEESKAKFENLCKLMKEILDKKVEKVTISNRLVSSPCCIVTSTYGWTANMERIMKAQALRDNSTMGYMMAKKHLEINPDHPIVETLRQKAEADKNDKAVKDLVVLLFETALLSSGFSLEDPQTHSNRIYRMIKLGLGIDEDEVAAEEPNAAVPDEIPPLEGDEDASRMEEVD
UniProt P09234, whole entry, looked up: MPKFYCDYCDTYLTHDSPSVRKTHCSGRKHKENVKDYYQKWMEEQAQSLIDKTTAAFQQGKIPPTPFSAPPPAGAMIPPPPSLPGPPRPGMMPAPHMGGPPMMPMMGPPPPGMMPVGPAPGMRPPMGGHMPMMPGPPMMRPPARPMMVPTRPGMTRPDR
UniProt P07919: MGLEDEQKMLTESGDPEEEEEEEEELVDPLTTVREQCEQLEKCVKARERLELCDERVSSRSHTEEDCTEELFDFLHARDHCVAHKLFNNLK

These targets were tested with COC(=O)C#Cc1ccccc1 [methyl 3-phenylpropiolate] (assay: log2 ratio of iodoacetamide-alkyne labeling of the cysteine site, DMSO over compound (competition); higher = stronger covalent engagement of the cysteine by the compound, active = 1 or more). Conditions: 500 µM; treatment time 1 h; system: HEK293T cell lysate.
Outline: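 Electrophile (500 µM) or vehicle was added to HEK293T lysate (2 mg/mL) for 1 h at ambient temperature before iodoacetamide alkyne labelling (1 h) and click coupling to sCIP-TMT reagents. After pooling, overnight trypsin digestion at 37 °C, streptavidin enrichment and acid elution, peptides were measured by Orbitrap Eclipse LC-MS/MS with FAIMS and quantified in FragPipe. Each cysteine's log2 competition ratio compares mean control-channel with mean compound-channel reporter intensity, control over compound. Data came from duplicate channels across three replicates, excluding cysteines quantified in only one replicate.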

log2 ratio of iodoacetamide-alkyne labeling, active:
IGF2R C2232 (UniProt P11717) 1.08, DSP C3 (UniProt P15924) 1.14

log2 ratio of iodoacetamide-alkyne labeling, inactive:
ARAF C192 (UniProt P10398) 0.205, JUP C90 (UniProt P14923) 0.305, PARP1 C256 (UniProt P09874) 0.249, DSP C899 (UniProt P15924) -0.0233, XRCC5 C157 (UniProt P13010) 0.161, EEF2 C751 (UniProt P13639) 0.116, SP1 C604 (UniProt P08047) -0.0454, EPRS C680 (UniProt P07814) 0.00776, UniProt P14618_C31 -0.0751, EPRS C692 (UniProt P07814) 0.316, DSP C110 (UniProt P15924) -0.0621, HNRNPL C472 (UniProt P14866) -0.0842, DLD C477 (UniProt P09622) 0.379, HSP90AA1 C481 (UniProt P07900) 0.0571, RPSA C148 (UniProt P08865) 0.122, UniProt P0DMV8_C17 0.404, DARS C349 (UniProt P14868) -0.0272, DLD C85 (UniProt P09622) 0.873, PRKAR1A C18 (UniProt P10644) 0.653, NME1 C109 (UniProt P15531) -0.00281, HSP90AB1 C589 (UniProt P08238) 0.0899, HSP90B1 C576 (UniProt P14625) 0.0628, ASNS C158 (UniProt P08243) -0.266, CAPN2 C341 (UniProt P17655) 0.0257, HSP90AB1 C590 (UniProt P08238) 0.067, SNRPC C9 (UniProt P09234) 0.00575, DBT C333 (UniProt P11182) -0.027, HNRNPL C404 (UniProt P14866) -0.0806, EEF2 C136 (UniProt P13639) 0.0351, ATP2A2 C560 (UniProt P16615) -0.00934, UQCRH C37 (UniProt P07919) 0.897, EEF2 C557 (UniProt P13639) -0.298, SNRPB C19 (UniProt P14678) 0.238, HSP90AB1 C366 (UniProt P08238) 0.0861, RNH1 C45 (UniProt P13489) 0.383, SNRNP70 C39 (UniProt P08621) 0.136
